Among the data in the supplement of paper PMC10849652 are log2 fold change values, retold here.

By UniProt entry, the sequences of proteins in these tests, tags left out. Where a name states a change or a piece, a line headed by the entry shows the natural chain unless it says otherwise.
UniProt Q9BQI0: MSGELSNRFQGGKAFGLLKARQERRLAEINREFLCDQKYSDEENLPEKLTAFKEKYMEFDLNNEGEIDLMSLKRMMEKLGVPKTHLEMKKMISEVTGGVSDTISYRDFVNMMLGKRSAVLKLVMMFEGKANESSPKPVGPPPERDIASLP
UniProt Q96EY9: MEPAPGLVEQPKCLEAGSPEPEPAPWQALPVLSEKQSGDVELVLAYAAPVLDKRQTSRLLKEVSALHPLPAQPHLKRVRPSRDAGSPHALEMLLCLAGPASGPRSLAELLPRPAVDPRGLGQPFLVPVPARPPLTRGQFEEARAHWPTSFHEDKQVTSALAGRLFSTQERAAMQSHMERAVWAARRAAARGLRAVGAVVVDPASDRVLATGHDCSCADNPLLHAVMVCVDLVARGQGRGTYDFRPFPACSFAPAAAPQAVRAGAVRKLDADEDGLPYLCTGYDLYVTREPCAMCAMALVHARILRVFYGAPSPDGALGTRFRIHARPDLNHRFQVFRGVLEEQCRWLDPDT
UniProt P54922: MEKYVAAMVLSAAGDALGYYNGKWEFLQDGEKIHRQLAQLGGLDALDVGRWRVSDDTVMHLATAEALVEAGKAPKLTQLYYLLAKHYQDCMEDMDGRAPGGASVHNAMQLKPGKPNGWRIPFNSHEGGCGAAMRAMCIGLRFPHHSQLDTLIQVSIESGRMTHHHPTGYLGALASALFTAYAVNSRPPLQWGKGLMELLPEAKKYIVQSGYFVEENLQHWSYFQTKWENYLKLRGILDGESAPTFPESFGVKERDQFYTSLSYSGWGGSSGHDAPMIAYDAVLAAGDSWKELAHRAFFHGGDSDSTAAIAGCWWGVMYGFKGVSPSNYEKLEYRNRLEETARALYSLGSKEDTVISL
UniProt Q02040: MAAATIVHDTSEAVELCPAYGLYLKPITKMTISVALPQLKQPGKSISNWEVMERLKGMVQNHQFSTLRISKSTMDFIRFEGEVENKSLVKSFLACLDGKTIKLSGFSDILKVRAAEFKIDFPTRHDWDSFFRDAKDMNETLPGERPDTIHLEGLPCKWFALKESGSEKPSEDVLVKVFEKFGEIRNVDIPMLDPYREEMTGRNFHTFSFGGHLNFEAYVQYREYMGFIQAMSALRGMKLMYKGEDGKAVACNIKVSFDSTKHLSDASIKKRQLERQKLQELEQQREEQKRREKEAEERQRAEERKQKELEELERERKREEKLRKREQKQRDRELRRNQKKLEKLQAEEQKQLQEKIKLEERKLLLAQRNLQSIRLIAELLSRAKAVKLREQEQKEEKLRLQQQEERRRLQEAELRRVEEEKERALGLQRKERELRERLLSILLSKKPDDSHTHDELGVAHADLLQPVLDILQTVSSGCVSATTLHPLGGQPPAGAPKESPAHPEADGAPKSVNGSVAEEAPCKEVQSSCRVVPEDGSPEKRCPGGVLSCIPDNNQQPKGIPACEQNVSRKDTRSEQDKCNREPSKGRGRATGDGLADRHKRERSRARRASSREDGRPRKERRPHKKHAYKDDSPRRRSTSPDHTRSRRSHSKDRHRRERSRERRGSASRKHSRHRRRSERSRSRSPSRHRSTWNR
UniProt Q9ULC5: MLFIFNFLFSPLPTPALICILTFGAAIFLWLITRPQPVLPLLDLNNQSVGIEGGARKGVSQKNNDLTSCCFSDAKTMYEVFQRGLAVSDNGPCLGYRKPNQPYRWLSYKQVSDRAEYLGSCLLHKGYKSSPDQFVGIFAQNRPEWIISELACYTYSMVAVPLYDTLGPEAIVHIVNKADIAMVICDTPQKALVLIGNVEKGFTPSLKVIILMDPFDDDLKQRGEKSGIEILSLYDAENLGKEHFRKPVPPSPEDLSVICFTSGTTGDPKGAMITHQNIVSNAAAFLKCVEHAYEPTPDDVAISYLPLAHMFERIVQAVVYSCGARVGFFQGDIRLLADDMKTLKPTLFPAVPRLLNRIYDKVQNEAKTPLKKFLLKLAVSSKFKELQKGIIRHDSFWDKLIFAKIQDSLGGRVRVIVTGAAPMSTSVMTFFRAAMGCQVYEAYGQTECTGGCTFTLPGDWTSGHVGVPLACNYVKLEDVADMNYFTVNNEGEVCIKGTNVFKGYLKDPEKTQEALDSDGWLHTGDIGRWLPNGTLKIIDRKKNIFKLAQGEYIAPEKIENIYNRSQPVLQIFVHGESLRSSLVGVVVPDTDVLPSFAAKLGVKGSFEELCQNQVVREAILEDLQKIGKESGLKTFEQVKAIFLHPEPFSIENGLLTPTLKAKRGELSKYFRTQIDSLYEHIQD
UniProt Q6UY14: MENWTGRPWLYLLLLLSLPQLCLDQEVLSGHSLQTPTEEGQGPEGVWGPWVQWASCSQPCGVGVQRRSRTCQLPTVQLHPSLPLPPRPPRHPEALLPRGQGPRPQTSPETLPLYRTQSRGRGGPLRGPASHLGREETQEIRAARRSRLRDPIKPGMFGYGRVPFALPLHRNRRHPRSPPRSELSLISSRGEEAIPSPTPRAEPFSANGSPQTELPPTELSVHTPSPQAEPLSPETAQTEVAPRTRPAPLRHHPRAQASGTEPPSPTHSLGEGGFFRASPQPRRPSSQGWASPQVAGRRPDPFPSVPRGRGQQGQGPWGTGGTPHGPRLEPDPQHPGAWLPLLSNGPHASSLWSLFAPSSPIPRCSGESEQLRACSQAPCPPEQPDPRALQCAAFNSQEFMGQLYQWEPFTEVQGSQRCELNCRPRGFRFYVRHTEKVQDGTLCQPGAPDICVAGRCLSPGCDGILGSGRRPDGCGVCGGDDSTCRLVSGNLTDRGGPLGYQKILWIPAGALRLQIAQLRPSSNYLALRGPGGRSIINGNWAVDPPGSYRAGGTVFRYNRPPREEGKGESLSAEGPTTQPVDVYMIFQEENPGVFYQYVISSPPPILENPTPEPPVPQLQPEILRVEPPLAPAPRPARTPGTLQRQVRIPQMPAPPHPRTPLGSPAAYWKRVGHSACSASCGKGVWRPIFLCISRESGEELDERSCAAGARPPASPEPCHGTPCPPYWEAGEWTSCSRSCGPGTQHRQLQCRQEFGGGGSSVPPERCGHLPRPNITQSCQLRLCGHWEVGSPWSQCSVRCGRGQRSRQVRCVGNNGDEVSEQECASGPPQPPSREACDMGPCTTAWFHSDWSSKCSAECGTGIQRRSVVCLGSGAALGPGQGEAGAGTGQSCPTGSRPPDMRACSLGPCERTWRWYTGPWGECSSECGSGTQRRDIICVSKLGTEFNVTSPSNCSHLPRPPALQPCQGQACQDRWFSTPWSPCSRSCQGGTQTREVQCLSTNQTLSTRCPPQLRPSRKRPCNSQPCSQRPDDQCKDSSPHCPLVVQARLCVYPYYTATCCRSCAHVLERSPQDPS
UniProt Q9NRZ5: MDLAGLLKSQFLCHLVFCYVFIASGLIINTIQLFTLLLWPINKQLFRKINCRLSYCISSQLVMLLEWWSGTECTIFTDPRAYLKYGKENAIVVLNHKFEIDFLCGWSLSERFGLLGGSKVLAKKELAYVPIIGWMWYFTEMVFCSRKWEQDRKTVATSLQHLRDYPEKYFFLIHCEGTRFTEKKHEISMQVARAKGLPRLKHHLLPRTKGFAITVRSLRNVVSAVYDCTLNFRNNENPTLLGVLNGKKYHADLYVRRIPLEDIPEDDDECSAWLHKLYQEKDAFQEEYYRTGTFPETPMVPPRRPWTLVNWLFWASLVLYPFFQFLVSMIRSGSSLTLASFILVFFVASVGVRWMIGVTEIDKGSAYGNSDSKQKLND
UniProt Q8WV93: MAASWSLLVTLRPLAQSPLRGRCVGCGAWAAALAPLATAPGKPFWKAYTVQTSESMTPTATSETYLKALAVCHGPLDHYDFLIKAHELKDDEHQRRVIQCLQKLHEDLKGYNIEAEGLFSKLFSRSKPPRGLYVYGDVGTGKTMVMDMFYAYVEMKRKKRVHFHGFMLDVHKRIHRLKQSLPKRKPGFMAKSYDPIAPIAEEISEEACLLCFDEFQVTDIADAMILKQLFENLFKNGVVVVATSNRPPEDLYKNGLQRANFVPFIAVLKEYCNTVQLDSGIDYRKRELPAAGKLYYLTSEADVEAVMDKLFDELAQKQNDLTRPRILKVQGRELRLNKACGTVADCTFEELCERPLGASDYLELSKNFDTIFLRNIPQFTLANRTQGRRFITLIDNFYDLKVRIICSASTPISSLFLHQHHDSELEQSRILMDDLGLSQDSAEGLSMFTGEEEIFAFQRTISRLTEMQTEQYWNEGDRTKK
UniProt Q8TED9: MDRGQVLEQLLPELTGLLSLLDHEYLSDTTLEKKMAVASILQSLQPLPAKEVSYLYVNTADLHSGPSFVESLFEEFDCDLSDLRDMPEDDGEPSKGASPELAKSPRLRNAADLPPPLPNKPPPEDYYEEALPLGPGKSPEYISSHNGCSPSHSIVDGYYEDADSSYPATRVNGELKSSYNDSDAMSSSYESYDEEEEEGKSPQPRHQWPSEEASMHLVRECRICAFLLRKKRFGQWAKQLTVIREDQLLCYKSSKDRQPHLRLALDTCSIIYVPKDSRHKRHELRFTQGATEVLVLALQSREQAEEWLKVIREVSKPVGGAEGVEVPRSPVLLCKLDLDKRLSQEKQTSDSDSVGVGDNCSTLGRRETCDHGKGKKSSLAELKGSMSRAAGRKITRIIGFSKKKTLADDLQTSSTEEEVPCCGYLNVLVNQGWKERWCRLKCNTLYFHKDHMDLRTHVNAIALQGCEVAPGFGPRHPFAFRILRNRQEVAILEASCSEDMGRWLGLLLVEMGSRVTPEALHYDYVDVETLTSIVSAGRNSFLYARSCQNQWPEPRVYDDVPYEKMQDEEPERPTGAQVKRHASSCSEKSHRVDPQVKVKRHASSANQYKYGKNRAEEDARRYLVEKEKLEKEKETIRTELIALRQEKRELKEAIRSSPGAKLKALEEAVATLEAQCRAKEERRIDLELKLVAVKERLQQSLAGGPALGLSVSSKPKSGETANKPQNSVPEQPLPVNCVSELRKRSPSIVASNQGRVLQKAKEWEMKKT
UniProt Q6ZN18: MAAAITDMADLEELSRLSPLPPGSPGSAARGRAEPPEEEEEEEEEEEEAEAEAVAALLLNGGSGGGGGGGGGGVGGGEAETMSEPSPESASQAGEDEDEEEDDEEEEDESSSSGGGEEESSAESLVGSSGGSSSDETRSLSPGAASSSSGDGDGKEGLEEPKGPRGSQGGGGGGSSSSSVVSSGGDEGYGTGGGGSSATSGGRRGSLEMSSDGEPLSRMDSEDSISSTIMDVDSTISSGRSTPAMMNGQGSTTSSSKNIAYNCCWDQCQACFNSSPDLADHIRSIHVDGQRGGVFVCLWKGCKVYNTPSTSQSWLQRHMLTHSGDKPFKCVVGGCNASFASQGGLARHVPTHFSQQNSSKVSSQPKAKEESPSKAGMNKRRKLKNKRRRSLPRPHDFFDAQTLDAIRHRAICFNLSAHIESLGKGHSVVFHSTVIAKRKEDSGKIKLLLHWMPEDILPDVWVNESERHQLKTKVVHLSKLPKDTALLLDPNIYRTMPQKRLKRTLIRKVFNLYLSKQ
UniProt Q9Y4W6: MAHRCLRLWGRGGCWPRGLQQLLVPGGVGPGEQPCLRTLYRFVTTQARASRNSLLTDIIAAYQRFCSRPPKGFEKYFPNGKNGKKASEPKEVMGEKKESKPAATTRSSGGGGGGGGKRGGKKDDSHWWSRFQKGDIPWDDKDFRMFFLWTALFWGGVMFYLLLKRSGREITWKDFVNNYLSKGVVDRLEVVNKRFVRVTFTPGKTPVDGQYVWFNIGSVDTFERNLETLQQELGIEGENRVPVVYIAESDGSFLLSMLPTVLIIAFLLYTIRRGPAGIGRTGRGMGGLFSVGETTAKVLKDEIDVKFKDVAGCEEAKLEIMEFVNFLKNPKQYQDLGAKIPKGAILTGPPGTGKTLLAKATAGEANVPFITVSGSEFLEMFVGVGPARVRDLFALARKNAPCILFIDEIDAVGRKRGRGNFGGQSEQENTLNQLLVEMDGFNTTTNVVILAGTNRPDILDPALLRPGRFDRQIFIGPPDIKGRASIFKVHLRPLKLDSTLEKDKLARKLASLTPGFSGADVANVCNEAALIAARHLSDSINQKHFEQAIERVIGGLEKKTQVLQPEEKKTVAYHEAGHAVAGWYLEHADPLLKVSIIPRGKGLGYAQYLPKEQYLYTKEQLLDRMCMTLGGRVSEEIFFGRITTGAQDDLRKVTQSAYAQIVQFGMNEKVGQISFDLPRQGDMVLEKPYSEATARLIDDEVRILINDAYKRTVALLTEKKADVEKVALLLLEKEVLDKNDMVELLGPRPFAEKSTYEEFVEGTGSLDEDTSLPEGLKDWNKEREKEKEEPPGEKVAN
UniProt Q13155: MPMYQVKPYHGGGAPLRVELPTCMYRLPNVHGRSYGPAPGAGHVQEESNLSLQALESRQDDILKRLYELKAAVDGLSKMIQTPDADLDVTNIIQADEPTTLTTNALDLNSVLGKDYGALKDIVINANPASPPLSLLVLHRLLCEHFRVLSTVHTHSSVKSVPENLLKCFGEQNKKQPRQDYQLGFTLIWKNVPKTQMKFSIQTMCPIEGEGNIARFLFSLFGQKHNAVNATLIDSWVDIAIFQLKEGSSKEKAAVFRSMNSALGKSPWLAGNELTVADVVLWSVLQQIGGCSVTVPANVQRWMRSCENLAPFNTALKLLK

The other results are listed elsewhere or left out.

Compound in one test: O=C(CCCCCCC(=O)Nc1ccccc1)NO [vorinostat]
Put plainly: log2 fold change, soluble protein after heating vs DMSO (PISA); higher = thermal stabilisation; K562 lysate, 10 uM; active = over 0.2 and 3.5 SD of the protein, either way, in both replicates (recomputed). The essentials: (§1)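 Dounce homogenisation of K562 pellets in PBS pH 7.4 with 1 mM MgCl2 produced a crude extract, used at 1 mg/mL protein. Exposure to 10 μM compound lasted 30 min, and aliquots were then heated for 3 min across 48°C-58°C, pooled and brought to 0.5% NP-40 at 4°C. The supernatant after 21,000xg for 90 min was quantified by TMTpro 16plex LC-MS/MS with channel sums equalised. Duplicate values are given as log-two fold change in thermal stability relative to solvent controls.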
Turning to ADD2 isoform 9 (UniProt P35612), the log2 fold change is inactive: -0.172.
The same measure, in the same setting: then AIF1L (UniProt Q9BQI0), with inactive: -0.048; and ADAM15 (UniProt Q13444), with inactive: 0.085.
Still for that read-out and setting: under ADAT3 (UniProt Q96EY9) stands inactive: -0.053; under ADPRH (UniProt P54922), inactive: -0.038; under ACSL6 isoform 1 (UniProt Q9UKU0), inactive: -0.294.
Still for that read-out and setting: under ADD1 isoform 4 (UniProt P35611) stands inactive: 0.237; under AKAP17A (UniProt Q02040), inactive: -0.479.
For ADCY7 (UniProt P51828), the log2 fold change is inactive: -0.45.
Still for that read-out and setting: then AKAP10 (UniProt O43572), with inactive: -0.429.
On to ACSL5 isoform 3 (UniProt Q9ULC5), for which the log2 fold change was inactive: -0.136.
On the same count and under the same terms, under AHI1 (UniProt Q8N157) stands inactive: 0.084; under ADCY3 (UniProt O60266), inactive: -0.063; under ADAMTSL4 isoform 3 (UniProt Q6UY14), inactive: 0.134.
Still for that read-out and setting: under AGPAT4 (UniProt Q9NRZ5) stands inactive: -0.016; under AFG1L (UniProt Q8WV93), inactive: -0.334.
Same read-out and setting: then AFAP1L1 (UniProt Q8TED9), with inactive: 0.03.
As for AHCTF1 isoform 2 (UniProt Q8WYP5), the log2 fold change was inactive: 0.106.
On the same count and under the same terms, under ACP5 (UniProt P13686) stands inactive: -0.053.
Consider AEBP2 (UniProt Q6ZN18), for which the log2 fold change was inactive: 0.138.
Same read-out and setting: under AFG3L2 (UniProt Q9Y4W6) stands inactive: 0.126; under ACTR8 (UniProt Q9H981), inactive: -0.298.
On the same count and under the same terms, under AKR1C1 (UniProt Q04828) stands inactive: -0.48.

Compound in the next test: O=C(O)c1ccc2c(c1)nc(Nc1cccc(Cl)c1)c1ccncc12 [silmitasertib]
The test is described as above. The essentials: as §1
As for ADD2 isoform 9 (UniProt P35612), the log2 fold change is inactive: 0.126.
Same read-out and setting: then AIF1L (UniProt Q9BQI0), with inactive: 0.083; and ADAM15 (UniProt Q13444), with inactive: 0.055.
Still for that read-out and setting: then ADAT3 (UniProt Q96EY9), with inactive: 0.04.
The same measure, in the same setting: under ADPRH (UniProt P54922) stands inactive: -0.014; under ACSL6 isoform 1 (UniProt Q9UKU0), inactive: 0.188.
With ADD1 isoform 4 (UniProt P35611), the log2 fold change is inactive: -0.148.
Turning to AKAP17A (UniProt Q02040), the log2 fold change is inactive: 0.321.
Turning to ADCY7 (UniProt P51828), the log2 fold change was inactive: 0.051.
On the same count and under the same terms, under AKAP10 (UniProt O43572) stands inactive: -0.047; under ACSL5 isoform 3 (UniProt Q9ULC5), inactive: 0.082.
AHI1 (UniProt Q8N157): the log2 fold change is inactive: 0.066.
In the case of ADCY3 (UniProt O60266), the log2 fold change is inactive: -0.042.
As to ADAMTSL4 isoform 3 (UniProt Q6UY14), the log2 fold change was inactive: -0.009.
AGPAT4 (UniProt Q9NRZ5): the log2 fold change is inactive: -0.022.
The same measure, in the same setting: under AFG1L (UniProt Q8WV93) stands inactive: 0.138; under AFAP1L1 (UniProt Q8TED9), inactive: -0.019.
Same read-out and setting: under AHCTF1 isoform 2 (UniProt Q8WYP5) stands inactive: 0.
Still for that read-out and setting: then ACP5 (UniProt P13686), with inactive: -0.125; and AEBP2 (UniProt Q6ZN18), with inactive: 0.019.
For AFG3L2 (UniProt Q9Y4W6), the log2 fold change was inactive: 0.05.
Consider ACTR8 (UniProt Q9H981), for which the log2 fold change is inactive: 0.092.
The same measure, in the same setting: then AKR1C1 (UniProt Q04828), with inactive: 0.133.

Compound in another test: O=C1NC(=O)C(c2cnc3ccccn23)=C1c1cn2c3c(cc(F)cc13)CN(C(=O)N1CCCCC1)CC2
Described as above. The method in brief: as §1
As to ACSS1 (UniProt Q9NUB1), the log2 fold change was inactive: -0.036.
Still for that read-out and setting: then AIF1L (UniProt Q9BQI0), with inactive: 0.022; and ADAM15 (UniProt Q13444), with inactive: 0.004; and ADAT3 (UniProt Q96EY9), with inactive: 0.019.
Take AFDN (UniProt H0Y948): the log2 fold change is inactive: 0.233.
On to ADPRH (UniProt P54922), for which the log2 fold change is inactive: 0.019.
Still for that read-out and setting: under ADPRM (UniProt Q3LIE5) stands inactive: 0.233; under ADCK5 (UniProt Q3MIX3), inactive: 0.017.
The same measure, in the same setting: then AKAP17A (UniProt Q02040), with inactive: -0.057; and ACTN4 (UniProt K7EJH8), with inactive: -0.028.
Take AJUBA (UniProt Q96IF1): the log2 fold change was inactive: -0.024.
Same read-out and setting: under AKAP10 (UniProt O43572) stands inactive: -0.09; under ACTB (UniProt C9JTX5), inactive: -0.098; under ADD3 isoform 2 (UniProt Q9UEY8), inactive: 0.008.
The same measure, in the same setting: under ACSL5 isoform 3 (UniProt Q9ULC5) stands inactive: -0.037; under AIMP2 isoform 2 (UniProt Q13155), inactive: -0.07.
As for AKR7L (UniProt Q8NHP1), the log2 fold change is inactive: 0.031.
The same measure, in the same setting: then AFMID isoform 2 (UniProt Q63HM1), with inactive: -0.118.
On to ADAMTSL4 isoform 3 (UniProt Q6UY14), for which the log2 fold change is inactive: 0.117.
On to AGPAT4 (UniProt Q9NRZ5), for which the log2 fold change was inactive: -0.023.
The same measure, in the same setting: then AFG1L (UniProt Q8WV93), with inactive: 0.082; and AFAP1L1 (UniProt Q8TED9), with inactive: -0.087; and AEBP2 (UniProt Q6ZN18), with inactive: -0.019.
On the same count and under the same terms, then AFG3L2 (UniProt Q9Y4W6), with inactive: -0.049.
